# Test results as given in paper PMC11724288.
# No constants are given. Whether binding was seen depends on the method and setting. Some entries that bind do so weakly or less than the wild type.
# T1: τ91 subunit of S. cerevisiae TFIIIC (S. cerevisiae) (UniProt Q06339)
# T1 sequence: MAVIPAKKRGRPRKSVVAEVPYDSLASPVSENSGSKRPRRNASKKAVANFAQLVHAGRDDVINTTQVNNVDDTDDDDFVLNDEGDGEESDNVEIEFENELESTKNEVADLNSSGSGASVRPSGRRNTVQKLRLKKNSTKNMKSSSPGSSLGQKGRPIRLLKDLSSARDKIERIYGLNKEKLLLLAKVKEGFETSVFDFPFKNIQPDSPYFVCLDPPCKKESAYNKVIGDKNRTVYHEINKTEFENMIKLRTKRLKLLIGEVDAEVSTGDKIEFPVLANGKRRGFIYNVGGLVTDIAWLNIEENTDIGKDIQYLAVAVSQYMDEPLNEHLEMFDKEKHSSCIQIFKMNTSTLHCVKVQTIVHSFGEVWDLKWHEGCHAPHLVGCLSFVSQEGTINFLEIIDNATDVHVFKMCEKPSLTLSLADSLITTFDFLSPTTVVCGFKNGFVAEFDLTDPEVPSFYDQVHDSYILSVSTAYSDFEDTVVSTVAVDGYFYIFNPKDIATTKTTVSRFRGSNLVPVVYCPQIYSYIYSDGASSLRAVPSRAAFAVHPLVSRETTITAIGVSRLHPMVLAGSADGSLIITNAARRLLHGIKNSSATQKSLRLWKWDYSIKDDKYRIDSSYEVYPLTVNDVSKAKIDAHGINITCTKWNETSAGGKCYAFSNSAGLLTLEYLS
# T2: τ95 subunit of S. cerevisiae TFIIIC, C-terminally truncated at residue 593 (S. cerevisiae) (UniProt P32367)
# T2 sequence: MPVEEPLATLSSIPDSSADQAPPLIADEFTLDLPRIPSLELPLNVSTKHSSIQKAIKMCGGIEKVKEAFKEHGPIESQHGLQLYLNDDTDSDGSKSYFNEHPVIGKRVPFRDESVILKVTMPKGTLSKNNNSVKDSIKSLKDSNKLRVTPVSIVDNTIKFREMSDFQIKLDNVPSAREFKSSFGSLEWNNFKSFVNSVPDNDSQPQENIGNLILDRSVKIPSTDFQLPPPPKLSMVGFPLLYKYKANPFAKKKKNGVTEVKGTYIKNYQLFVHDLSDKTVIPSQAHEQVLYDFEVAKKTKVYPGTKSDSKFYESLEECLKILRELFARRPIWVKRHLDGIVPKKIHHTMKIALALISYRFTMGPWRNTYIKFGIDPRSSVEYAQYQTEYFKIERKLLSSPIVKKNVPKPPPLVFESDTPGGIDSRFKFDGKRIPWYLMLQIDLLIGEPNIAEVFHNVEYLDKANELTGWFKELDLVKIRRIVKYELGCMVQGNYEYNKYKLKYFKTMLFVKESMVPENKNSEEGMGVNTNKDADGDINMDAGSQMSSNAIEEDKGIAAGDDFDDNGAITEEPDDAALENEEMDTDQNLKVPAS
# T3: τ131 subunit of S. cerevisiae TFIIIC (S. cerevisiae) (UniProt P33339)
# T3 sequence: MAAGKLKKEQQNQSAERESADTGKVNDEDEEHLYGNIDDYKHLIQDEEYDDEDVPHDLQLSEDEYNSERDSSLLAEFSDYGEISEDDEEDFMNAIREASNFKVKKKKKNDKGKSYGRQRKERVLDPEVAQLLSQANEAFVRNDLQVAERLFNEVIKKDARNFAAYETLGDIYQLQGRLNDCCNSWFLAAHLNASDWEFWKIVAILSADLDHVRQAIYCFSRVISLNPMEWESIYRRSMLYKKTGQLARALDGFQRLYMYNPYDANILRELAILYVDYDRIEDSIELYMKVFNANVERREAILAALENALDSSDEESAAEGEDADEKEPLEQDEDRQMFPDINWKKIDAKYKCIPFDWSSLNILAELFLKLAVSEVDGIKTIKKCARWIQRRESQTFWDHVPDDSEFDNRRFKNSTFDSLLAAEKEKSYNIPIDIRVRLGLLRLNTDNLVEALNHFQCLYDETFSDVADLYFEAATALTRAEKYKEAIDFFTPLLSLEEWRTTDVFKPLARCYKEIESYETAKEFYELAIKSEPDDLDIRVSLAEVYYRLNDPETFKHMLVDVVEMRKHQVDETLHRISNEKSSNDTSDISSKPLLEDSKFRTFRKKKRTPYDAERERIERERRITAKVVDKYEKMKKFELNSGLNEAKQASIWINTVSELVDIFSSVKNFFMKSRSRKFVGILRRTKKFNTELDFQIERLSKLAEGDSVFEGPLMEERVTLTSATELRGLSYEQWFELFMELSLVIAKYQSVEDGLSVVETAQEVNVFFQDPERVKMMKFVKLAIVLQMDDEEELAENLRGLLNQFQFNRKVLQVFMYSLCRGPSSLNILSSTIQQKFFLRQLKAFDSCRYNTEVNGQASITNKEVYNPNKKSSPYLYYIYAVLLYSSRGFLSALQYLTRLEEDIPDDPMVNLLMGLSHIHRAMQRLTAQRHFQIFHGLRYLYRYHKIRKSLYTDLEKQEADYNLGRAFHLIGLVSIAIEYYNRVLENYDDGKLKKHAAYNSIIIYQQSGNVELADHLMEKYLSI
# T4: τ60 subunit of S. cerevisiae TFIIIC (S. cerevisiae) (UniProt Q12308)
# T4 sequence: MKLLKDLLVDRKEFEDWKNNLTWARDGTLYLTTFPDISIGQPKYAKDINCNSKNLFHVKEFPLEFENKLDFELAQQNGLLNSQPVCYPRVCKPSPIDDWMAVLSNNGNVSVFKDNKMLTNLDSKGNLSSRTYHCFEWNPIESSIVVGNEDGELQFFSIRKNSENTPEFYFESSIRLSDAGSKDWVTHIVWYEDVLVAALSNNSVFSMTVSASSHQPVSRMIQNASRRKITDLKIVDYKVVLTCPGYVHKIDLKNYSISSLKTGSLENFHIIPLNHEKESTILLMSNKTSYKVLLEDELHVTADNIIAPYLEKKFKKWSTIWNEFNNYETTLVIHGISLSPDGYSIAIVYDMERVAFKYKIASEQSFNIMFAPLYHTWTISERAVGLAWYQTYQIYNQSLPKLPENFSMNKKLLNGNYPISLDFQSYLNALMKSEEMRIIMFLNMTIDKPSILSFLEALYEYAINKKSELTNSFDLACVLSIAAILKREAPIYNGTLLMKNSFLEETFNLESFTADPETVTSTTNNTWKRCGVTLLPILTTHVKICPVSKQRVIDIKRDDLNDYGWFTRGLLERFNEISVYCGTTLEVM
# T5: τ55 subunit of S. cerevisiae TFIIIC (S. cerevisiae) (UniProt Q12415)
# T5 sequence: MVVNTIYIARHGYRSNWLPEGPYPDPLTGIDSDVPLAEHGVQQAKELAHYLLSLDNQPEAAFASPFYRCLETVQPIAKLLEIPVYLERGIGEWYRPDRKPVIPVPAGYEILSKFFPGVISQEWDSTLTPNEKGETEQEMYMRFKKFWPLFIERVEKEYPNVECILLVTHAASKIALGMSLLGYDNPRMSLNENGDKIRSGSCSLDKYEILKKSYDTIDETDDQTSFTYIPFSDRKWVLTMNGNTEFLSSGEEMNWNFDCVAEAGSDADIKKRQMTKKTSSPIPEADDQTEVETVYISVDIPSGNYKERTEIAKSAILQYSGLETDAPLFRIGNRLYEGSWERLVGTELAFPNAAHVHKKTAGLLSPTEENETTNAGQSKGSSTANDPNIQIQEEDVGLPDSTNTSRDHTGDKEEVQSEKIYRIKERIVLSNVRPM
# B1: τ60 subunit of S. cerevisiae TFIIIC (protein, UniProt Q12308 1-588)
# chain: T4 sequence
# B2: τ55 subunit of S. cerevisiae TFIIIC (protein, UniProt Q12415 1-435)
# chain: T5 sequence
# B3: τ138 subunit of S. cerevisiae TFIIIC (protein, UniProt P34111 1-1160)
# chain: MVLTIYPDELVQIVSDKIASNKGKITLNQLWDISGKYFDLSDKKVKQFVLSCVILKKDIEVYCDGAITTKNVTDIIGDANHSYSVGITEDSLWTLLTGYTKKESTIGNSAFELLLEVAKSGEKGINTMDLAQVTGQDPRSVTGRIKKINHLLTSSQLIYKGHVVKQLKLKKFSHDGVDSNPYINIRDHLATIVEVVKRSKNGIRQIIDLKRELKFDKEKRLSKAFIAAIAWLDEKEYLKKVLVVSPKNPAIKIRCVKYVKDIPDSKGSPSFEYDSNSADEDSVSDSKAAFEDEDLVEGLDNFNATDLLQNQGLVMEEKEDAVKNEVLLNRFYPLQNQTYDIADKSGLKGISTMDVVNRITGKEFQRAFTKSSEYYLESVDKQKENTGGYRLFRIYDFEGKKKFFRLFTAQNFQKLTNAEDEISVPKGFDELGKSRTDLKTLNEDNFVALNNTVRFTTDSDGQDIFFWHGELKIPPNSKKTPNKNKRKRQVKNSTNASVAGNISNPKRIKLEQHVSTAQEPKSAEDSPSSNGGTVVKGKVVNFGGFSARSLRSLQRQRAILKVMNTIGGVAYLREQFYESVSKYMGSTTTLDKKTVRGDVDLMVESEKLGARTEPVSGRKIIFLPTVGEDAIQRYILKEKDSKKATFTDVIHDTEIYFFDQTEKNRFHRGKKSVERIRKFQNRQKNAKIKASDDAISKKSTSVNVSDGKIKRRDKKVSAGRTTVVVENTKEDKTVYHAGTKDGVQALIRAVVVTKSIKNEIMWDKITKLFPNNSLDNLKKKWTARRVRMGHSGWRAYVDKWKKMLVLAIKSEKISLRDVEELDLIKLLDIWTSFDEKEIKRPLFLYKNYEENRKKFTLVRDDTLTHSGNDLAMSSMIQREISSLKKTYTRKISASTKDLSKSQSDDYIRTVIRSILIESPSTTRNEIEALKNVGNESIDNVIMDMAKEKQIYLHGSKLECTDTLPDILENRGNYKDFGVAFQYRCKVNELLEAGNAIVINQEPSDISSWVLIDLISGELLNMDVIPMVRNVRPLTYTSRRFEIRTLTPPLIIYANSQTKLNTARKSAVKVPLGKPFSRLWVNGSGSIRPNIWKQVVTMVVNEIIFHPGITLSRLQSRCREVLSLHEISEICKWLLERQVLITTDFDGYWVNHNWYSIYEST
# How the values were obtained:
# Assay in all cases: cryo-EM structure; TFIIICΔtail with 85-bp or 120-bp tRNA^His DNA; 20 mM HEPES pH 8.0, 2 mM MgCl2, 5 mM DTT, 75-200 mM KCl (datasets 1-5); separate reconstructions of τA–DNA (3.65 Å) and τB–DNA (2.46 Å); both purified
# [1] = molecular target: T1, τ91 subunit of S. cerevisiae TFIIIC (S. cerevisiae)
# [2] = molecular target: T2, τ95 subunit of S. cerevisiae TFIIIC, C-terminally truncated at residue 593 (S. cerevisiae)
# [3] = molecular target: T3, τ131 subunit of S. cerevisiae TFIIIC (S. cerevisiae)
# [4] = molecular target: T4, τ60 subunit of S. cerevisiae TFIIIC (S. cerevisiae)
# [5] = molecular target: T5, τ55 subunit of S. cerevisiae TFIIIC (S. cerevisiae)
binder,measurement,setting,value
B1,binding,[1],binds
B2,binding,[2],binds
B3,binding,[3],binds
same,binding,[4],binds
same,binding,[5],binds
same,binding,[1],binds
same,binding,[2],binds
